# Reference: the supplement of paper PMC9254222
# In all, about 1,100 compounds were measured (“Wnt reporter firefly/Renilla luciferase ratio relative to plate median”: median about 1.1, highest 2% from about 1.6 on). This is a selection; strong and weak results do not stand in their true shares.
# Tested on: HEK293T (UBE3A T485A transfected, BAR Wnt reporter)
# Test: Wnt reporter firefly/Renilla luciferase ratio relative to plate median (fold (linear ratio)); higher = more Wnt/beta-catenin reporter activation
# Details: 24 h
# In short: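 Chemicals were robotically dosed at 0.01–100 uM for 24 h onto HEK293T cells, starting four hours after transfection with a BAR firefly luciferase Wnt reporter, TK-Renilla and an expression plasmid. The cells had been plated at 4500 cells/well in DMEM with 10% FBS at 37°C and 5% CO2. Following a Dual-Glo luciferase readout, the firefly/Renilla ratio served as the Wnt activity measure and raw Renilla as the cell health measure, both median-centred on each plate. Each value is the mean of four biological replicates.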
SMILES,Wnt reporter firefly/Renilla luciferase ratio (concentration: 0.1 uM),Wnt reporter firefly/Renilla luciferase ratio (concentration: 1 uM),Wnt reporter firefly/Renilla luciferase ratio (concentration: 10 uM),Wnt reporter firefly/Renilla luciferase ratio (concentration: 100 uM),Wnt reporter firefly/Renilla luciferase ratio (concentration: 0.01 uM)
O=c1n(CC2CO2)c(=O)n(CC2CO2)c(=O)n1CC1CO1 (stereo not drawn) [Triglycidyl isocyanurate],0.824,0.831,0.784,,
CN(C)CCOC(c1ccccc1)c1ccccc1.Cl [Diphenhydramine hydrochloride],0.983,0.773,1.04,0.49,
Clc1ccccc1C(c1ccccc1)(c1ccccc1)n1ccnc1 [Clotrimazole],1.06,1.01,0.928,1.34,
CCN(Cc1cccnc1)C(=O)c1cccc(Cl)c1[C@]1(C)C(=O)N(Cc2ccc(OC)cc2OC)c2ccc(Cl)cc21.Cl,0.938,0.858,0.412,,
O=C(O)Cc1cc(I)c(Oc2ccc(O)c(I)c2)c(I)c1 [Tiratricol],1.21,0.759,0.202,0.201,
CCOC(=O)C(C)Oc1ccc(Oc2nc3ccc(Cl)cc3o2)cc1 (stereo not drawn) [Fenoxaprop-ethyl],1.37,0.888,0.884,0.813,1.14
O=C(O)c1cccc(C[C@@H]2COc3ccc(OCc4nc5cc(F)ccc5s4)cc3[C@@H]2O)c1,0.972,1.2,1.07,1.47,
CC(=O)NC1(c2cccc(F)c2)CCN(CC[C@@]2(c3ccc(Cl)c(Cl)c3)CN(c3ccccc3)C(=O)CO2)CC1.O=C(O)CCC(=O)O,1.1,0.864,0.665,,
Cc1oc(-c2ccccc2)nc1CCOc1ccc(C[C@H](Nc2ccccc2C(=O)c2ccccc2)C(=O)O)cc1 [Farglitazar],1.36,1.48,0.991,1.19,
Cc1ccc2ncccc2c1 [6-Methylquinoline],0.931,0.836,1.29,1.81,
CCCCCCCCCCCCN1CCCC1=O [1-Dodecyl-2-pyrrolidinone],1.09,1.14,1.19,1.13,
CCCCN(CCCC)CCCC [Tributylamine],0.962,0.958,0.941,1.08,
C[C@](N)(Cc1ccc(O)c(O)c1)C(=O)O.C[C@](N)(Cc1ccc(O)c(O)c1)C(=O)O.O.O.O [Methyldopa sesquihydrate],1.33,0.914,0.891,1.05,
CCN(CC)CCOc1ccc(C(=C(Cl)c2ccccc2)c2ccccc2)cc1.O=C(O)CC(O)(CC(=O)O)C(=O)O [Clomiphene citrate (1:1)],0.955,0.989,1.08,1.12,
CCCOC(=O)NCCCN(C)C.Cl [Propamocarb hydrochloride],1.07,0.962,0.884,1.11,0.767
CC(=O)O.COCCOc1cc2cc(C(=O)NC3CCN(C(C)C)CC3)n(CC(=O)Nc3ccc(Cl)cn3)c2cn1,0.74,0.724,1.15,0.297,
CNC(CC(=O)O)C(=O)O (stereo not drawn),0.981,1.17,0.957,1.4,0.99
O=C(O)c1ccc([N+](=O)[O-])cc1 [4-Nitrobenzoic acid],1.36,1.16,1.28,1.31,
Cc1cccc(Nc2cc(Cl)nc(SCC(=O)O)n2)c1C [Pirinixic acid],1.28,1.09,1.16,1.17,
CC(=O)c1ccccc1 [Acetophenone],1.48,1.03,1.27,1.46,
O=[N+]([O-])c1ccc(O)cc1 [4-Nitrophenol],1.19,0.935,1.31,0.927,

# Exported tab-delimited: 5 of the compounds above
SMILES	Wnt reporter firefly/Renilla luciferase ratio (concentration: 0.1 uM)	Wnt reporter firefly/Renilla luciferase ratio (concentration: 1 uM)	Wnt reporter firefly/Renilla luciferase ratio (concentration: 10 uM)	Wnt reporter firefly/Renilla luciferase ratio (concentration: 100 uM)	Wnt reporter firefly/Renilla luciferase ratio (concentration: 0.01 uM)
CN(C)CCOC(c1ccccc1)c1ccccc1.Cl [Diphenhydramine hydrochloride]	0.983	0.773	1.04	0.49	
CCN(Cc1cccnc1)C(=O)c1cccc(Cl)c1[C@]1(C)C(=O)N(Cc2ccc(OC)cc2OC)c2ccc(Cl)cc21.Cl	0.938	0.858	0.412		
O=C(O)Cc1cc(I)c(Oc2ccc(O)c(I)c2)c(I)c1 [Tiratricol]	1.21	0.759	0.202	0.201	
CCCOC(=O)NCCCN(C)C.Cl [Propamocarb hydrochloride]	1.07	0.962	0.884	1.11	0.767
O=[N+]([O-])c1ccc(O)cc1 [4-Nitrophenol]	1.19	0.935	1.31	0.927	

# Further records:

SMILES,Wnt reporter firefly/Renilla luciferase ratio (concentration: 0.1 uM),Wnt reporter firefly/Renilla luciferase ratio (concentration: 1 uM),Wnt reporter firefly/Renilla luciferase ratio (concentration: 10 uM),Wnt reporter firefly/Renilla luciferase ratio (concentration: 100 uM),Wnt reporter firefly/Renilla luciferase ratio (concentration: 0.01 uM)
"Cc1ccc(C)c(O)c1 [2,5-Dimethylphenol]",0.904,0.928,1.07,1.26,
Cc1[nH]cnc1C[C@H]1CCc2c(C)c3ccccc3n2C1=O.Cl [Fabesetron hydrochloride],0.929,1,0.724,,
C#CC(O)C(CC)CCCC (stereo not drawn) [4-Ethyloct-1-yn-3-ol],1.08,1.04,1.02,1.11,
OC1CCCCC1 [Cyclohexanol],1.31,1.03,1.07,1.36,
CCCCC(CC)CN1C(=O)C2C3C=CC(C3)C2C1=O (stereo not drawn),0.836,0.924,1.23,0.306,1.46
Nc1ccc(S(=O)(=O)c2ccc(N)cc2)cc1 [Dapsone],1.22,1.05,0.993,0.868,
"c1ccc2occc2c1 [2,3-Benzofuran]",1.25,1.35,1.18,1.11,
CN(C)[C@@H]1C(O)=C(C(N)=O)C(=O)[C@@]2(O)C(O)=C3C(=O)c4c(O)cccc4[C@@](C)(O)[C@H]3[C@H](O)[C@@H]12.Cl [Oxytetracycline hydrochloride],1.09,1.03,0.562,0.0778,
CC(C)OC(=O)C(C)(C)Oc1ccc(C(=O)c2ccc(Cl)cc2)cc1 [Fenofibrate],1.17,1.18,1.21,1.27,
"CC(C)CC(C)(O)C#CC(C)(O)CC(C)C (stereo not drawn) [2,4,7,9-Tetramethyl-5-decyne-4,7-diol]",0.994,1.13,1.03,0.398,
COc1ccc2sc(C(=O)Nc3nnn[n-]3)c(OC(C)C)c2c1.[Na+],1.08,1.08,1.35,,
COC(=O)c1ccc(O)cc1 [Methylparaben],1.14,1.09,1.36,0.972,
OC[C@H]1O[C@@](CO)(O[C@H]2O[C@H](CO)[C@@H](O)[C@H](O)[C@H]2O)[C@@H](O)[C@@H]1O [Sucrose],0.818,0.989,0.924,1.26,
"OCC(CO)(CBr)CBr [2,2-Bis(bromomethyl)-1,3-propanediol]",1.18,0.867,0.858,0.83,
NC(=O)c1nc(-c2cccc(-c3cc(F)ccc3OCC(F)(F)C(F)(F)F)c2)n[n-]1.O.[K+],1.08,0.937,0.551,,
COCCOCCOC [Bis(2-methoxyethyl) ether],1.06,0.871,0.862,1.42,
CCCCC(CC)COC(=O)CCCCCCCCC(=O)OCC(CC)CCCC (stereo not drawn) [Bis(2-ethylhexyl) decanedioate],0.935,1.08,1.07,1.12,
"CCCCCCCC/C=C\CCCCCCCC(=O)OC[C@@H](O)[C@H]1OC[C@H](O)[C@H]1O [Sorbitan, mono-(9Z)-9-octadecenoate]",1.02,1,0.875,1.03,
CC(C)(C)c1csc(-c2cc3cc(OCc4ccccc4CC(=O)O)ccc3o2)n1,1.02,1.04,0.758,,
OCCOCCOCCO [Triethylene glycol],0.815,1.04,1.07,1.32,
NC(N)=O,0.93,1.14,1.14,1.14,

SMILES,Wnt reporter firefly/Renilla luciferase ratio (concentration: 0.1 uM),Wnt reporter firefly/Renilla luciferase ratio (concentration: 1 uM),Wnt reporter firefly/Renilla luciferase ratio (concentration: 10 uM),Wnt reporter firefly/Renilla luciferase ratio (concentration: 100 uM),Wnt reporter firefly/Renilla luciferase ratio (concentration: 0.01 uM)
"CC(C)C(=O)OCC(C)(C)C(OC(=O)C(C)C)C(C)C (stereo not drawn) [2,2,4-Trimethyl-1,3-pentanediol diisobutyrate]",0.92,0.885,1.15,1.64,
c1ccc(C(O[C@@H]2CCCN(CCc3ccc4c(c3)OCO4)C2)c2ccccc2)cc1 [Zamifenacin],1.15,1.05,0.996,1.13,
CN(C)C(=O)Nc1ccc(Cl)c(Cl)c1 [Diuron],0.989,0.948,1.41,0.198,1.43
"O=c1[nH]sc2ccccc12 [1,2-Benzisothiazolin-3-one]",1.11,1.1,0.988,,
Cn1cnc2c1c(=O)[nH]c(=O)n2C [Theobromine],1.3,1.08,1.06,0.963,
CCc1c(C(=O)NN2CCCCC2)nn(-c2ccc(Cl)cc2Cl)c1-c1ccc(Br)cc1 [Surinabant],0.958,0.986,0.432,0.215,
COc1cccc(-c2ccc(/C=C\CN3CCCCCC3)cc2Cl)c1.Cl,1.12,1.1,1.04,0.826,
O=c1c(-c2ccc(O)cc2)coc2cc(O)cc(O)c12 [Genistein],1.45,1.16,0.958,0.631,1.71
OCC(CO)n1cnc(-c2ccc(F)cc2)c1-c1ccnc(Oc2ccccc2)n1,0.889,0.465,0.41,0.356,
CC(COCC(C)OC(=O)c1ccccc1)OC(=O)c1ccccc1 (stereo not drawn) [Di(propylene glycol) dibenzoate],1.25,1.23,1.18,1.44,
CC/C(=C\C(=N/O)C(N)=O)C(C)[N+](=O)[O-] (stereo not drawn),0.874,1.09,1.05,1.4,
CC(=O)CC(C)(C)O [Diacetone alcohol],0.954,1.16,1.1,1.13,
Cc1ccc(-c2cc(C(F)(F)F)nn2-c2ccc(S(N)(=O)=O)cc2)cc1 [Celecoxib],1.44,1.02,1.04,0.889,
CCCCCCCCCCO [1-Decanol],1.01,1.15,1.22,1.47,
"CC(C)(C)c1cccc(C(C)(C)C)c1O [2,6-Di-tert-butylphenol]",,,,1.72,
COC(=O)CCCCC(=O)OC [Dimethyl adipate],1.03,1.21,0.848,1.23,
CC(C)(O)c1coc(S(=O)(=O)NC(=O)Nc2c3c(cc4c2CCC4)CCC3)c1,1.04,0.761,0.902,0.531,
"O=Cc1ccccc1C=O [1,2-Benzenedicarboxaldehyde]",1.16,1.01,1.07,1.18,
CCCCCCCCCCCCO [1-Dodecanol],1.03,1.11,1.12,1.11,
CC(=O)O[C@]1(C(C)=O)CC[C@H]2[C@@H]3C=C(Cl)C4=CC(=O)[C@@H]5C[C@@H]5[C@]4(C)[C@H]3CC[C@@]21C [Cyproterone acetate],1.13,1.08,0.97,0.502,
